PubChem BioAssay AID652243 | Drosophila RNAi Screening Center, 2013
The screen tested about 24,000 reagents; below is a random part of those that have a named target and a result. Of all reagents, 246 (1%) are marked active. 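Plates not normalised; calls are printed but the firefly/Renilla ratio behind them is not deposited; fold cut for lowering reported inconsistently.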 Raw values are not corrected between plates. Entries without a mark were called inactive. A plus sign joins genes that one reagent is predicted to hit. Reagent sequences are not shown. The record does not give: the amount of reagent.

Test: 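Fly genes required for human androgen receptor driven transcription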 (primary screen)
Cell system: Drosophila S2R+ cells
Reagents: long dsRNA against Drosophila genes
Timing: 72 h (48 h, then 24 h hormone)
Treatment: synthetic androgen R1881 at 10 nM for 24 h
Detection: 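Firefly light from an androgen-responsive reporter and Renilla control light per well, raw and unnormalised, for each of two replicates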
Scale: firefly reporter light: higher = more light from androgen-responsive reporter; Renilla control light: higher = more constitutive control signal (cell number, transfection)
Call rule: 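Hit when the log firefly-to-Renilla ratio dropped or increased by a fixed fold versus the mean of GFP or LacZ controls across duplicate plates; lowering cut given as 1.5 and as 3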
Calls: active = hit: reporter lowered or raised; inactive = no hit

| predicted target | DRSC id | firefly reporter light, replicate 1 | firefly reporter light, replicate 2 | Renilla control light, replicate 1 | Renilla control light, replicate 2 |
| --- | --- | --- | --- | --- | --- |
| CG43774 + CG43773 | DRSC00287 | 1.18e5 | 79066 | 6.23e5 | 5.20e5 |
| CG43774 + CG43773 | DRSC00288 | 1.11e5 | 1.02e5 | 6.04e5 | 9.86e5 |
| CG43774 + CG43773 | DRSC26834 | 5.50e5 | 3.14e5 | 1.17e6 | 3.94e5 |
| CCAP (Crustacean cardioactive peptide) | DRSC15674 | 1.71e5 | 1.25e5 | 2.22e6 | 1.88e6 |
| CG9705 | DRSC11094 | 56371 | 72919 | 9.75e5 | 8.36e5 |
| CG3345 | DRSC00596 | 1.12e6 | 5.76e5 | 3.45e6 | 9.84e5 |
| stwl (stonewall) | DRSC11400 | 1.42e5 | 1.06e5 | 5.43e5 | 4.24e5 |
| stwl (stonewall) | DRSC23913 | 1.64e5 | 2.76e5 | 8.53e5 | 5.73e5 |
| CkIIbeta (Casein kinase II beta subunit) | DRSC20230 | 2.93e5 | 3.87e5 | 2.81e6 | 2.96e6 |
| CG12991 | DRSC19511 | 5.13e5 | 4.57e5 | 2.96e6 | 2.95e6 |
| CG12991 | DRSC28165 | 5.72e5 | 4.33e5 | 1.50e6 | 1.14e6 |
| ms(2)34Fe (male sterile (2) 34Fe) | DRSC01905 | 1.41e5 | 1.63e5 | 1.95e6 | 1.66e6 |
| CG15439 | DRSC00453 | 2.69e5 | 3.40e5 | 2.46e6 | 3.53e6 |
| CG15439 | DRSC29801 | 4.48e5 | 4.96e5 | 9.40e5 | 1.30e6 |
| mas (masquerade) | DRSC08720 | 1.09e6 | 8.00e5 | 2.38e6 | 2.18e6 |
| mas (masquerade) | DRSC28905 | 4.14e5 | 3.82e5 | 8.99e5 | 9.74e5 |
| RpL28 + snoRNA:Or-CD12 | DRSC08293 | 1.65e5 | 1.75e5 | 1.22e6 | 1.52e6 |
| Nepl19 (Neprilysin-like 19) | DRSC14875 | 4.14e5 | 5.30e5 | 2.23e6 | 3.78e6 |
| CG31145 | DRSC14206 | 1.50e5 | 1.58e5 | 2.95e6 | 3.12e6 |
| CG31145 | DRSC14671 | 1.26e5 | 1.83e5 | 2.28e6 | 2.28e6 |
| CG31145 | DRSC26758 | 2.85e5 | 2.47e5 | 6.76e5 | 4.36e5 |
| CG13705 | DRSC08314 | 1.82e5 | 1.94e5 | 2.43e6 | 3.80e6 |
| CG13705 | DRSC22691 | 7.05e5 | 5.56e5 | 1.92e6 | 1.31e6 |
| CG13705 | DRSC25173 | 1.28e6 | 1.13e6 | 1.14e6 | 1.17e6 |
| CG30432 | DRSC04833 | 2.62e5 | 3.41e5 | 6.30e5 | 6.98e5 |
| CG13204 | DRSC06328 | 2.22e5 | 1.08e5 | 1.17e6 | 8.26e5 |
| CG13204 | DRSC27988 | 4.18e5 | 3.67e5 | 2.01e6 | 1.38e6 |
| Sox102F | DRSC17204 | 1.27e5 | 97376 | 1.24e6 | 6.60e5 |
| Sox102F | DRSC25915 | 3.41e5 | 3.64e5 | 1.05e6 | 1.06e6 |
| CG14893 | DRSC15015 | 1.93e5 | 1.79e5 | 3.57e6 | 2.89e6 |
| HINT1 (histidine triad nucleotide binding protein 1) | DRSC26502 | 1.08e5 | 59155 | 2.84e5 | 1.45e5 |
| CG8929 | DRSC07298 | 8.28e5 | 4.61e5 | 1.18e6 | 9.67e5 |
| CG8929 | DRSC22847 | 4.82e5 | 7.83e5 | 8.62e5 | 1.90e6 |
| CG6961 + CG18259 | DRSC19799 | 2.17e5 | 1.54e5 | 9.42e5 | 5.12e5 |
| CG6961 + CG18259 | DRSC20019 | 86045 | 91233 | 7.47e5 | 7.98e5 |
| CG6961 + CG18259 | DRSC26849 | 3.32e5 | 3.68e5 | 3.91e5 | 6.60e5 |
| Bruce (BIR repeat containing ubiquitin-conjugating enzyme) | DRSC16015 | 1.09e5 | 1.27e5 | 1.75e6 | 1.88e6 |
| Npc1b (Niemann-Pick type C-1b) | DRSC20488 | 1.89e5 | 1.49e5 | 5.48e5 | 3.72e5 |
| CG4968 | DRSC02794 | 4.99e5 | 4.08e5 | 2.58e6 | 2.05e6 |
| CG4968 | DRSC29740 | 4.83e5 | 4.68e5 | 1.27e6 | 1.21e6 |
| CG31921 | DRSC00013 | 1.80e5 | 1.68e5 | 7.50e5 | 6.67e5 |
| ZIPIC (Zinc-finger protein interacting with CP190) | DRSC16349 | 1.70e5 | 1.37e5 | 9.83e5 | 5.59e5 |
| CalpA (Calpain-A) | DRSC07352 | 92086 | 1.38e5 | 1.32e6 | 1.84e6 |
| UQCR-6.4 (Ubiquinol-cytochrome c reductase 6.4 kDa subunit) | DRSC06454 | 59723 | 67728 | 9.34e5 | 9.34e5 |
| UQCR-6.4 (Ubiquinol-cytochrome c reductase 6.4 kDa subunit) | DRSC28738 | 5.90e5 | 3.88e5 | 9.38e5 | 8.47e5 |
| Obp22a (Odorant-binding protein 22a) | DRSC00088 | 1.66e5 | 2.18e5 | 7.51e5 | 3.91e5 |
| Ube4B (Ubiquitination factor E4B) | DRSC03277 | 1.36e6 | 1.21e6 | 1.52e6 | 1.50e6 |
| nbs | DRSC11373 | 2.26e5 | 2.41e5 | 2.23e6 | 2.48e6 |
| nbs | DRSC23793 | 4.13e5 | 3.44e5 | 4.71e5 | 4.22e5 |
| Tti1 (Telo2 interacting protein 1) | DRSC15163 | 1.05e5 | 81445 | 2.20e6 | 2.05e6 |
| Tti1 (Telo2 interacting protein 1) | DRSC27694 | 2.49e5 | 2.73e5 | 3.95e5 | 8.50e5 |
| klg (klingon) | DRSC13591 | 37159 | 45689 | 80883 | 1.28e5 |
| klg (klingon) | DRSC16978 | 1.58e5 | 2.08e5 | 1.90e6 | 1.87e6 |
| nompA (no mechanoreceptor potential A) | DRSC06329 | 2.49e5 | 1.59e5 | 1.95e6 | 1.01e6 |
| GstE3 (Glutathione S transferase E3) | DRSC06673 | 73358 | 90637 | 1.44e6 | 1.44e6 |
| CG42553 | DRSC08356 | 68208 | 70880 | 1.40e6 | 1.05e6 |
| CG5126 | DRSC00680 | 6.51e5 | 9.47e5 | 2.30e6 | 1.87e6 |
| CG8478 | DRSC16427 | 1.27e5 | 1.51e5 | 2.09e6 | 3.65e6 |
